# Measurements as given in the supplement of paper PMC12889115.
# The list shows a part of the results. Values are raw readings; no control value is given beside them.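 First-pass screen: polymyxin B was added at a level that permeabilizes the Salmonella outer membrane while sparing the inner membrane. DMSO wells, with and without polymyxin B, defined maximum growth. Because plates differed from one another, each plate's data were ranked separately and the compounds with the lowest OD600 were carried forward as hits.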
# System: Salmonella enterica serovar Typhimurium SL1344
# Experiment: bacterial growth OD600 after 18 h with compound and polymyxin B; higher = more bacterial growth (less inhibition)
# Settings: 50 µM, Mueller-Hinton broth
SMILES,bacterial growth OD600 (polymyxin B 0.75 µg/mL),bacterial growth OD600 (polymyxin B 1 µg/mL)
Cc1ccc(CN(C)C(=O)CC2(c3ccccc3)CC(=O)N(CCCOc3cccnc3)C2=O)cc1 (stereo not given),0.002,–
C=CCCC(=O)N(CCc1ccccc1)CC1CCCN(C)C1 (stereo not given),–,0.961
CCCNC(=O)N1CCC(N2CCCC(C(=O)NC3CC3)C2)CC1 (stereo not given),0.864,–
CC(=O)c1ccc(-c2cc(F)cc3c2OC(CNC(=O)[C@@H]2C[C@@H]4C=C[C@H]2C4)C3)s1 (stereo not given in full),0.766,–
c1cncc(COC2CCN(c3nc4nonc4nc3NC3CCCC3)CC2)c1,–,0.867
Cc1cc(C(=O)N2CCC(C3CCN(Cc4cccnc4)CC3)C2)c(C)o1 (stereo not given),0.839,–
CSc1ccccc1C(=O)NCc1c(C)ncc2c1CCN(C(=O)CCC(=O)c1ccccc1)C2,0.827,–
O=C1N(Cc2cccc(F)c2F)CCCC1(O)CNC1CCC1 (stereo not given),0.978,–
COCC(=O)Nc1cc(C(=O)NC(C)Cc2ccccn2)c2c(c1)ncn2Cc1ccc(F)cc1 (stereo not given),0.82,–
CC(C)=CCN1CCN(Cc2c(C)n(C)n(-c3ccccc3)c2=O)CC1CCO (stereo not given),–,0.892
CN(CCc1ccccn1)Cc1ccc2c(c1)CN(Cc1cccc3nccnc13)CCO2,0.916,–
Cc1cc(-c2ccnc(-n3ncc(C(=O)N4CCN(c5ccc(O)cc5)CC4)c3C)n2)c(C)s1,0.731,–
C/C=C(\C)CN1CCC(Oc2cc(Cl)ccc2C(=O)N2CCCCC2)CC1,–,0.871
CCCNC(=O)NC1CCCc2nc(-c3cccnc3)ncc21 (stereo not given),–,0.966
CCCC(=O)NCc1cccnc1Oc1ccccc1OC,0.811,–
CN(CC1COCCO1)C(=O)c1cc(COc2ccccc2)[nH]n1 (stereo not given),–,0.892
COc1ccc(NC2CCCN(C(=O)COc3ccc(C)cc3)C2)cc1 (stereo not given),–,0.872
CC(Cc1cccnc1)NC(=O)c1csc2nc(-c3ccc(Cl)cc3)cn12 (stereo not given),–,0.048
COCCNC(=O)c1ccc(OC2CCN(Cc3ccccc3OC)CC2)c(Cl)c1,–,0.034
COC(=O)c1ccc(CNC2CCN(c3ccc(C(=O)N4CCc5ccccc5C4)cc3)CC2)cc1,0.761,–

# 3 compounds out of the list, ordered by SMILES length, low to high.
SMILES,bacterial growth OD600 (polymyxin B 0.75 µg/mL),bacterial growth OD600 (polymyxin B 1 µg/mL)
O=C1N(Cc2cccc(F)c2F)CCCC1(O)CNC1CCC1 (stereo not given),0.978,–
c1cncc(COC2CCN(c3nc4nonc4nc3NC3CCCC3)CC2)c1,–,0.867
CC(C)=CCN1CCN(Cc2c(C)n(C)n(-c3ccccc3)c2=O)CC1CCO (stereo not given),–,0.892
